In patent US20260224538A1 (Purdue Research Foundation, priority 2023, published 2026):
Some entries share one result that the patent states for a list of compounds.

Experiments:
Format in all cases: biochemical
α-synuclein (α-syn) = molecular target: T1, α-synuclein (α-syn) (Homo sapiens, UniProt P37840); assay: Thioflavin-T (ThT) fluorescence assay of α-syn fibril formation; settings: for ThT a-Syn (%), maximum thioflavin T (ThT) intensity in percentage: compounds at 100 μM, α-syn 6.25 μM, control 0.25% DMSO; for thioflavin T fluorescence intensity, α-syn: screen on prone-to-aggregate proteins (FIG. 2A, FIG. 4A)
T1 construct: purchased rPeptide
Description: (§1) Thioflavin-T (ThT) fluorescence assays. Thioflavin-T (ThT) fluorescence assays were used to monitor fibril formation of recombinant Ap (fragments 1-40 and 1-42), recombinant α-syn, recombinant tau isoform 2N4R, synthetic IAPP, and synthetic TTR peptides treated with BTA and its derivatives. The IAPP ThT assay was performed in 10 mM PBS (pH 7.4) at a final concentration of 10 μM for both IAPP and ThT as published previously. Aβ fragments 1-40 and 1-42 were tested at 7 μM in 10 mM of PBS using ThT at a final concentration of 20 μM. Kinetics of α-syn fibrillization were performed as published previously.^36-37 TTR fragment kinetics of fibril formation were assessed at 10 μM in 100 mM sodium acetate buffer supplemented with 100 mM KCl and 1 mM ethylenediaminetetraacetic acid (EDTA) (pH 4) with 20 μM ThT. The fluorescence emission experiments were performed with the excitation and emission wavelengths set at 440 and 485 nm, respectively, with a Synergy HT multi-mode microplate reader (BioTek, Winooski, VT). Samples were measured in three replicates, and the experiments were repeated three times using at least two different stock solutions. For each time point, arbitrary units of fluorescence were calculated from the mean values normalized against the maximum value in each completed assay. The lag time for each condition was calculated as previously described. All results contained in histograms were presented as mean±SEM. Data were analyzed by the one-way analysis of variance with Dunnett's multiple comparisons between controls and compounds. Differences were considered statistically significant at p<0.05.
Compounds with the highest anti-fibrillary activity were tested at 3.125, 6.25, 12.5, 25, 50, and 100 μM to obtain dose-response curves with prepared α-syn and 2N4R tau at 6.25 μM and 6 μM, respectively. Compounds were tested with α-syn using a previously published procedure. Concerning the tau (isoform 2N4R) kinetics of fibril formation, measurements of ThT fluorescence were performed with a solution of the protein diluted to a final concentration of 6 μM in PBS (pH 7.4) supplemented with 1.5 μM heparin, 20 μM ThT, 2.5 mM DTT, and 100 μM compound. Aliquots of the diluted protein solution (100 μL each) were pipetted into the wells of a 96-well plate, and a Teflon ball was added to each well. The plate was incubated at 37° C. with constant shaking at 1,000 rpm in a Tecan Spark plate reader. ThT fluorescence was measured every 15 minutes with excitation and emission wavelengths of 440 nm and 480 nm, and the data were plotted using GraphPad Prism.

[1] = molecular target: T2, transthyretin fragment peptide (TTR81-127) (Homo sapiens, UniProt P02766); assay: ThT fluorescence assay of TTR81-127 fibril formation; settings: for TTR81-127 fibril formation (ThT): compound 100 μM, molar ratio 1:10
T2 construct: TTR fragment 81-127 was obtained from AnaSpec; purchased AnaSpec; host or cells: synthetic peptide
Description: as §1

TTR101-125 = molecular target: T3, TTR101-125 (Homo sapiens, UniProt P02766); assay: ThT fluorescence assay of TTR101-125 fibril formation; settings: compound 100 μM, molar ratio 1:10
T3 construct: TTR fragments 1-25, 26-50, 51-75, 76-100, 81-105, 101-125, and 101-125 were obtained from GenScript; purchased GenScript; host or cells: synthetic peptide
Description: as §1

[2] = molecular target: T4, islet amyloid polypeptide (IAPP) (Homo sapiens, UniProt P10997); assay: ThT fluorescence assay of IAPP fibril formation; settings: screen on prone-to-aggregate proteins (FIG. 2A, FIG. 4A); IAPP 10 μM
T4 construct: Human islet amyloid polypeptide (IAPP) was procured from AnaSpec; purchased AnaSpec; host or cells: synthetic peptide
T4 sequence (P10997 34-70 limits assumed): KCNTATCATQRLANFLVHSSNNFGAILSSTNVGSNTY
Description: as §1, with “All results contained in histograms were presented as mean±SEM. Data were analyzed by the one-way analysis of variance with Dunnett's multiple comparisons between controls and compounds. Differences were considered statistically significant at p<0.05.” left out

Compound	ThT a-Syn (%), maximum thioflavin T (ThT) intensity in percentage (α-synuclein (α-syn))	TTR81-127 fibril formation (ThT) [1]	TTR101-125 fibril formation (ThT) (TTR101-125)	also measured
O=[N+]([O-])c1ccc2snc(Nc3nc(Cl)nc(Cl)n3)c2c1 [Compound 6, N-(4,6-dichloro-1,3,5-triazin-2-yl)-5-nitro-1,2-benzothiazol-3-amine]	significant loss of anti-fibrillary activity			
O=[N+]([O-])c1ccc2snc(Nc3ncnc(Cl)n3)c2c1 [Compound 7, N-(4-chloro-1,3,5-triazin-2-yl)-5-nitro-1,2-benzothiazol-3-amine]	significant loss of anti-fibrillary activity			
CC(=O)c1ccc(NC(=O)Nc2ccc(-c3nc4ccccc4s3)cc2)cc1 [Compound 1, 1-(4-acetylphenyl)-3-[4-(1,3-benzothiazol-2-yl)phenyl]urea]		failed to abrogate substantially fibril formation	failed to abrogate substantially fibril formation	
Nc1ccc(-c2nc3ccccc3s2)cc1 [BTA, 4-(2-benzothiazolyl)aniline, reference compound]				thioflavin T fluorescence intensity, α-syn (α-synuclein (α-syn)): under 40%; thioflavin T fluorescence intensity, TTR81-127 ([1]; screen on prone-to-aggregate proteins (FIG. 2A, FIG. 4A)): under 40%
CC(=O)c1ccc(NC(=S)Nc2ccc(-c3nc4ccccc4s3)cc2)cc1 [Compound 2, 1-(4-acetylphenyl)-3-[4-(1,3-benzothiazol-2-yl)phenyl]thiourea]		failed to abrogate substantially fibril formation	failed to abrogate substantially fibril formation	
Oc1ccc(C=Cc2cc(O)cc(O)c2)cc1 [resveratrol, reference compound]				thioflavin T fluorescence intensity, α-syn (α-synuclein (α-syn)): under 40%; thioflavin T fluorescence intensity, IAPP [2]: under 40%
O=C(Cc1ccccc1)Nc1nsc2ccc([N+](=O)[O-])cc12 [Compound 8, N-(5-nitro-1,2-benzothiazol-3-yl)-2-phenylacetamide]	significant loss of anti-fibrillary activity			
CC(=O)c1ccc(S(=O)(=O)Nc2ccc(-c3nc4ccccc4s3)cc2)cc1 [Compound 3, 4-acetyl-N-[4-(1,3-benzothiazol-2-yl)phenyl]benzene-1-sulfonamide]		failed to abrogate substantially fibril formation	failed to abrogate substantially fibril formation	
O=C(Cc1cccs1)Nc1nsc2ccc([N+](=O)[O-])cc12 [Compound 9]	significant loss of anti-fibrillary activity			
c1ccc2sc(-c3ccc(-n4nnc5ccccc54)cc3)nc2c1 [Compound 4, 1-[4-(1,3-benzothiazol-2-yl)phenyl]-1H-1,2,3-benzotriazole]		failed to abrogate substantially fibril formation	failed to abrogate substantially fibril formation	
